This note sets out measurements from paper PMC9446545.

Amino acid sequences for entries named in this document (tags omitted).
UniProt O09106: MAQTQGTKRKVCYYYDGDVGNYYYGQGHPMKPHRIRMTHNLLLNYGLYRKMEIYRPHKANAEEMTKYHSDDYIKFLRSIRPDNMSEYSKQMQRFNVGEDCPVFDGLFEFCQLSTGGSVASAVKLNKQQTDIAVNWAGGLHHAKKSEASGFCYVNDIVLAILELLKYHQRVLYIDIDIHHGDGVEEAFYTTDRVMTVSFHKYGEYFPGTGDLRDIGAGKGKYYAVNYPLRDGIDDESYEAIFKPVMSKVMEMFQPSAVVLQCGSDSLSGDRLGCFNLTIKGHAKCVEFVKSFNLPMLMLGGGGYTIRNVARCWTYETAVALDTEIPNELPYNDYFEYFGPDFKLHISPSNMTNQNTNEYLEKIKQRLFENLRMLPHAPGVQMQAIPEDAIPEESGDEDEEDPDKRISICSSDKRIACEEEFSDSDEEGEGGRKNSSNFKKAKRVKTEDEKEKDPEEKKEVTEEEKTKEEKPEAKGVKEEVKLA
UniProt P70288: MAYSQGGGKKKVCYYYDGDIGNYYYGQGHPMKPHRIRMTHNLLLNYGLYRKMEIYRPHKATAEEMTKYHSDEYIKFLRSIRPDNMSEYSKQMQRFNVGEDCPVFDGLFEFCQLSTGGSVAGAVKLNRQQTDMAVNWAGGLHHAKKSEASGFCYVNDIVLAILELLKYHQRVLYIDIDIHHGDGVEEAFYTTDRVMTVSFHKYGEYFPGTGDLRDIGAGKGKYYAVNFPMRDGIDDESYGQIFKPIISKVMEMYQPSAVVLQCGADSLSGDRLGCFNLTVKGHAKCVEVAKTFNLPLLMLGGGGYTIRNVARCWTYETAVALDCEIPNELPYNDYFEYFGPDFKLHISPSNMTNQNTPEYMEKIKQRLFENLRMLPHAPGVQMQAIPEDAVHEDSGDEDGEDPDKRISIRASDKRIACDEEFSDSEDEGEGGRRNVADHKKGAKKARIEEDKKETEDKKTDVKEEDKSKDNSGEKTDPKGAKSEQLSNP
UniProt Q6P5D8: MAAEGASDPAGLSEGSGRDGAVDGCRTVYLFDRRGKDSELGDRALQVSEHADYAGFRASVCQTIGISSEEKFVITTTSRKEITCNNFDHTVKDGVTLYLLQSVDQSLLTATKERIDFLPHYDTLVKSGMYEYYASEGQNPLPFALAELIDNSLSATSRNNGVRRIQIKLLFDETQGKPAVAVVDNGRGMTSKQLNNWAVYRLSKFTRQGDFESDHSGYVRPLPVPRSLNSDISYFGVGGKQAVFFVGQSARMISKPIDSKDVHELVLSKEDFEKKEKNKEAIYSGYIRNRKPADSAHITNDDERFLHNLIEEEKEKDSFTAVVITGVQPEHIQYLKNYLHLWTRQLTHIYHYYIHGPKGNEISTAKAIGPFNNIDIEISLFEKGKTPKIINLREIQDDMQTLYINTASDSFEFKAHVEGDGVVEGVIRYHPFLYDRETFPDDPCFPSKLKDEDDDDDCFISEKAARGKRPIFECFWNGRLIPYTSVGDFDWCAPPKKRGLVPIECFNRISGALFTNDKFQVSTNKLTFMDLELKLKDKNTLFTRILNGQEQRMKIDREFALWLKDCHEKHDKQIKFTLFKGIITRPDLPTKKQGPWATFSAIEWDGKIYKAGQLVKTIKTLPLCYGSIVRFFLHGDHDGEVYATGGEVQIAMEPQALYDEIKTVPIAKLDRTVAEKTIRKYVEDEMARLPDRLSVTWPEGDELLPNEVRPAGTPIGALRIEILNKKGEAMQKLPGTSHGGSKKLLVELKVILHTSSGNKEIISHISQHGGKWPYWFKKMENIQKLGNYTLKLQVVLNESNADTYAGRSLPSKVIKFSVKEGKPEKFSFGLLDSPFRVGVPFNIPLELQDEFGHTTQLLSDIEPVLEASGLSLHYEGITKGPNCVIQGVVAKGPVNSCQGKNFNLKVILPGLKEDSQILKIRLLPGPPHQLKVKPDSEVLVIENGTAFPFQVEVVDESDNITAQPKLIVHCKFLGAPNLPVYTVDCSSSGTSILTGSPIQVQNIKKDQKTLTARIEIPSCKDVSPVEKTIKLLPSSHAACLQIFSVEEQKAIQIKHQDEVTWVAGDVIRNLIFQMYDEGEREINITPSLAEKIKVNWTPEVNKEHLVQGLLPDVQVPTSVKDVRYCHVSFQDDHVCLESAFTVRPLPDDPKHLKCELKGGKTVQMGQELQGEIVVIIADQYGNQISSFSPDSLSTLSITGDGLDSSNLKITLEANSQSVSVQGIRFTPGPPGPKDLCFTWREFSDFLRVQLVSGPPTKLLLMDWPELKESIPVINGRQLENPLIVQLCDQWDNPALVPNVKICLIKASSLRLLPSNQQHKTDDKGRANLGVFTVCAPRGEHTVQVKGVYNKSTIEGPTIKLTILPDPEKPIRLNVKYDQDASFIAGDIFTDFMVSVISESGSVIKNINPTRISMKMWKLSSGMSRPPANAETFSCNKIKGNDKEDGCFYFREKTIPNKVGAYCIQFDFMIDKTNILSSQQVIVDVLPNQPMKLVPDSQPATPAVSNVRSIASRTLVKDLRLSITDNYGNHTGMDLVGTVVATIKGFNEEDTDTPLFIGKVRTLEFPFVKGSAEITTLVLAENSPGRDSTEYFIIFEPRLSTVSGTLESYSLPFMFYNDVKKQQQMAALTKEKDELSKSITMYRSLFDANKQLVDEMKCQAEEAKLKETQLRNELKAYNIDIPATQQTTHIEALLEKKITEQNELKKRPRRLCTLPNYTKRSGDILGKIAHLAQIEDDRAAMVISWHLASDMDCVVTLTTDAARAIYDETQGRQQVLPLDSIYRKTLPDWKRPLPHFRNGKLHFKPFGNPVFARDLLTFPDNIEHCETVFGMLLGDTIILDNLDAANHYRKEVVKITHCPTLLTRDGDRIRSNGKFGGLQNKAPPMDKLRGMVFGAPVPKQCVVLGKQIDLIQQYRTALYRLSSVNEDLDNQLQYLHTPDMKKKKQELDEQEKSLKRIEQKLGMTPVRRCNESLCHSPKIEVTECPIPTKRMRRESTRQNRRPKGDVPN
UniProt Q92769: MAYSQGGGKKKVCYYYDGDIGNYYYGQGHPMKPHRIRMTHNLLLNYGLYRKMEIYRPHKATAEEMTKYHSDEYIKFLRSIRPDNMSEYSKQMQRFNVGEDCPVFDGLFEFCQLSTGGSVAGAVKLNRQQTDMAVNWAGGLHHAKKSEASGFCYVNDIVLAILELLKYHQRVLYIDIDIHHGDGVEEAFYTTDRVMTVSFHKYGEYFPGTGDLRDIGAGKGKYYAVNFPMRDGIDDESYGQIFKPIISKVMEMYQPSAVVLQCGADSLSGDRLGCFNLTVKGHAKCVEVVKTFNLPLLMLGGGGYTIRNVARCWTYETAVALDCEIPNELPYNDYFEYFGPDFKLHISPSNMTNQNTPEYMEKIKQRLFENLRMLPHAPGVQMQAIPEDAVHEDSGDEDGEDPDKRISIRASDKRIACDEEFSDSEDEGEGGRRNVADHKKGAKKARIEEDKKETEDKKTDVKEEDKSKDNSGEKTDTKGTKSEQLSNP
UniProt Q9UBN7: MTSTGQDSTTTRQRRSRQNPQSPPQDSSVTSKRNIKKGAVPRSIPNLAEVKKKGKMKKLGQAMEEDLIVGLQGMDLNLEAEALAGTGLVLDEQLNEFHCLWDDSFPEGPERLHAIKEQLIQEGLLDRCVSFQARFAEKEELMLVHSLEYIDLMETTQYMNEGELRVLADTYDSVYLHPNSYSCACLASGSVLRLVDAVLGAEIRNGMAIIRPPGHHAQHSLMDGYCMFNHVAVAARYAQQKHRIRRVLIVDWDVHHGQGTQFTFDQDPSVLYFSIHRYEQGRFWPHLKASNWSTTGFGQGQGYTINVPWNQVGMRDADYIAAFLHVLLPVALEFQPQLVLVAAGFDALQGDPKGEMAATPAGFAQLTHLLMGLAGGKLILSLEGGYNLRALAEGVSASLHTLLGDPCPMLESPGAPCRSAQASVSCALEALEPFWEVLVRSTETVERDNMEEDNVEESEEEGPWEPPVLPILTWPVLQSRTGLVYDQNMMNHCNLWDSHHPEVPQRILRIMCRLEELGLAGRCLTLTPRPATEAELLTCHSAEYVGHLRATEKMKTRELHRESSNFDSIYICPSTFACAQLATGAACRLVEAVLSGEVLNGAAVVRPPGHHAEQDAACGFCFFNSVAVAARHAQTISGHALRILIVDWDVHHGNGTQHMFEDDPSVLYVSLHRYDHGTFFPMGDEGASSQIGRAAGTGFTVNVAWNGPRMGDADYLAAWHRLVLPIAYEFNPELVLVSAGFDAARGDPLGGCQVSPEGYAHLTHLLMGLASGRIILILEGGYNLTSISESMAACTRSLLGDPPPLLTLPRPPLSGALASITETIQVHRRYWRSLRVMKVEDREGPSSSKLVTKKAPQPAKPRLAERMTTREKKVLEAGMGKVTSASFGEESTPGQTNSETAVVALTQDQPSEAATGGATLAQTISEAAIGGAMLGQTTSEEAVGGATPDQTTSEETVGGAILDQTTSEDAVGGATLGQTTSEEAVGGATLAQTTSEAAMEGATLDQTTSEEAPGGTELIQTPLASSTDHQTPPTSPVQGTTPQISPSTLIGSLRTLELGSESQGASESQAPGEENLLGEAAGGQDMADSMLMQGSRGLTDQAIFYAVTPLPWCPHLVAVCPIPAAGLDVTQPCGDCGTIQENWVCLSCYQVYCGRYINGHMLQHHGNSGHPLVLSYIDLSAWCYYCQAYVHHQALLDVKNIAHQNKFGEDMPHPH
UniProt Q13547: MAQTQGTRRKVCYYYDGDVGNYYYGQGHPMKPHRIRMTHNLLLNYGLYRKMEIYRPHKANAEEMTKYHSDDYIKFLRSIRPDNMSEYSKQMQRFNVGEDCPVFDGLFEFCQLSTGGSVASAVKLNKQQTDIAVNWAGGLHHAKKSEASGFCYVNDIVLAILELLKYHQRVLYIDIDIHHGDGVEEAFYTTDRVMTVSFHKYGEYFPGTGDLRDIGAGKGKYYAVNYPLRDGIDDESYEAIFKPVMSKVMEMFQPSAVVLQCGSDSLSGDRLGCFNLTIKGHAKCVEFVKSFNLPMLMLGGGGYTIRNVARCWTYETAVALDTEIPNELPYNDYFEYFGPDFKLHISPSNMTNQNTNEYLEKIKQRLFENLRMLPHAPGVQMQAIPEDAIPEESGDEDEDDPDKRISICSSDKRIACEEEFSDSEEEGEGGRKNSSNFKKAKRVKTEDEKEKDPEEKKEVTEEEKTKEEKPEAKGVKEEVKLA

These are yes or no findings as the source states them, for the method shown. For some assays here: In cells and extracts the contact can be indirect. Some results given as binding are weak or reduced against the parent protein; the word gives no strength. For some assays here: Where a sequence is shown, tags or fusion partners need not be part of it.

In experiment [1] the target is T1, ZCWPW1, full length mouse, in pGBKT7 (two-hybrid bait) (mouse) (UniProt Q6IR42).
T1 sequence: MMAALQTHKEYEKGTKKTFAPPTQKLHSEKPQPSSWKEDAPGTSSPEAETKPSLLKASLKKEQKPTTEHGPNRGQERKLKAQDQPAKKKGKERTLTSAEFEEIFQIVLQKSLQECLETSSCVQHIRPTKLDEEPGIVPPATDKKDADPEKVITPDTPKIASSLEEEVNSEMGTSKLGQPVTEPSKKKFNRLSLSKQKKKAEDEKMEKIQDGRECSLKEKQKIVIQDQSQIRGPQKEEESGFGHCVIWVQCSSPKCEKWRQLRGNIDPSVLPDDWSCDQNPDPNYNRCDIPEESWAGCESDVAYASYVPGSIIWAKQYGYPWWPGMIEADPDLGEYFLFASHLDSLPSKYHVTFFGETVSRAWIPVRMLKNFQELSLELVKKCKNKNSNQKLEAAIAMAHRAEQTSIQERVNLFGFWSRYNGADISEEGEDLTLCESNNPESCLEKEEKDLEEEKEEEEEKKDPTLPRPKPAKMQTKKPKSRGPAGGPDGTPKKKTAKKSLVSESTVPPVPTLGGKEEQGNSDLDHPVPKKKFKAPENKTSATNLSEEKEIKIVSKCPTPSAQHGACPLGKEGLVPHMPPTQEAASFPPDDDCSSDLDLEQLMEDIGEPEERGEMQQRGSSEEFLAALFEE
The experiment in a line: two-hybrid; Zcwpw1 in pGBKT7 as bait, preys in pGADT7, co-transformed into yeast two-hybrid gold strain; selection on SD/-Leu/-Trp/-His.

In experiment [2] the target is T2, ZCWPW1-EGFP (mouse Zcwpw1 in pCAG-GFP) (mouse) (UniProt Q6IR42).
T2 sequence: T1 sequence
The experiment in a line: co-IP; HeLa cells transfected with ZCWPW1-GFP plasmid for 48 h, Pierce IP lysis buffer; IP with GFP antibody, protein A/G beads, immunoblot for HDAC1, HDAC2, HDAC6. Background: In western blotting, separated proteins are transferred to a membrane and probed.

For experiment [3], the target named is T3, ZCWPW1 (endogenous, mouse testes) (mouse (endogenous in mouse testes)) (UniProt Q6IR42).
T3 sequence: T1 sequence
The experiment in a line: co-IP; PD14-PD16 mouse testes protein extracts (WT; Zcwpw1-/- as control), Pierce IP lysis buffer (25 mM Tris-HCl pH 7.4, 150 mM NaCl, 1 mM EDTA, 1% NP-40, 5% glycerin); IP with anti-ZCWPW1 antibody overnight at 4°C, protein A/G beads, immunoblot.

Experiment [4] has as its target HDAC1 (endogenous, mouse testes) (mouse (endogenous in mouse testes)) (UniProt O09106). The experiment in a line: co-IP; mouse testes protein extracts, Pierce IP lysis buffer; IP with an HDAC antibody (anti-HDAC1, anti-HDAC2, anti-HDAC6), protein A/G beads, immunoblot for ZCWPW1.
Experiment [5] addresses HDAC2 (endogenous, mouse testes) (mouse (endogenous in mouse testes)) (UniProt P70288). Described as above.
For experiment [6], the target named is T4, HDAC6 (endogenous, mouse testes) (mouse (endogenous in mouse testes)) (UniProt Q9Z2V5).
T4 sequence: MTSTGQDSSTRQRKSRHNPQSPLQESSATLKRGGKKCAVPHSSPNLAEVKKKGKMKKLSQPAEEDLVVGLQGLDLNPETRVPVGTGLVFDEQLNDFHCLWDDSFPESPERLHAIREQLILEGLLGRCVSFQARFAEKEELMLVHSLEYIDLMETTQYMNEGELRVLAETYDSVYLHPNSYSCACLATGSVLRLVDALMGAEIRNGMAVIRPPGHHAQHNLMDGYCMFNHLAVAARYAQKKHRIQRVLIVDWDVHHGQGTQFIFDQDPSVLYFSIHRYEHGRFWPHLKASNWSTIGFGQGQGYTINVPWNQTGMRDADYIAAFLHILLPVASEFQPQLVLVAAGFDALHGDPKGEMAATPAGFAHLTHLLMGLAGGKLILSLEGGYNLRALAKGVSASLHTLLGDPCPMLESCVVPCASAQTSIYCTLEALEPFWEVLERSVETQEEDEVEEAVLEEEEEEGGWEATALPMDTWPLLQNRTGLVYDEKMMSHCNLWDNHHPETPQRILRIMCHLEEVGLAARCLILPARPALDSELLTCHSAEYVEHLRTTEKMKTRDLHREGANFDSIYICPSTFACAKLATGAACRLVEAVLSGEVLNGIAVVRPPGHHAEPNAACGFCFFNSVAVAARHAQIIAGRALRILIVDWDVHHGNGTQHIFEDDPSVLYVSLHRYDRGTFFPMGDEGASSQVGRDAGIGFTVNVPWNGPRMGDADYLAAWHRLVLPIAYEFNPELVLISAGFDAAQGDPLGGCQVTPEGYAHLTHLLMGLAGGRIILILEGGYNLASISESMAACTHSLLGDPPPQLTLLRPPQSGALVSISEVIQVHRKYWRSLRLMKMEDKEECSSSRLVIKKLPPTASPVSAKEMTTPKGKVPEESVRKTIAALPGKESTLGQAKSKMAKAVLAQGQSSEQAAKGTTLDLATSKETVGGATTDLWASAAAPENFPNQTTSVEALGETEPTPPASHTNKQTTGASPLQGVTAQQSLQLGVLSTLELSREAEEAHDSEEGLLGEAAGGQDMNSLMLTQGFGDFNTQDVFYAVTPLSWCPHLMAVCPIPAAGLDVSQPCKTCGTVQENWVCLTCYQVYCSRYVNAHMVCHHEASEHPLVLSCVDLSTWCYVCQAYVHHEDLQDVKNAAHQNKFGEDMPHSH
The experiment is described as above.

Turning to “SMCHD1, full length mouse, in pGADT7 (two-hybrid prey) (from UniProt Q6P5D8 1-2007)”, the binding result in experiment [1] was “binds”. Regarding “HDAC2, full length mouse, in pGADT7 (two-hybrid prey) (from UniProt P70288 1-488) (enzyme)”, the binding result in experiment [1] is on record as “binds”. “HDAC2 (in HeLa cells) (from UniProt Q92769 1-488) (enzyme)”: the binding entry in experiment [2] is “binds”.

In the case of “HDAC1, full length mouse, in pGADT7 (two-hybrid prey) (from UniProt O09106 1-482) (enzyme)”, the binding entry in experiment [1] is reported as “binds”. Turning to “HDAC6 (in HeLa cells) (from UniProt Q9UBN7 1-1215) (enzyme)”, in experiment [2], the binding entry is “binds”.

On to “HDAC1 (in HeLa cells) (from UniProt Q13547 1-482) (enzyme)”, for which the binding entry in experiment [2] is listed as “binds”.

As to “SMCHD1 (endogenous, mouse testes) (from UniProt Q6P5D8 1-2007)”, the binding entry in experiment [3] is listed as “binds”.

As for “HDAC1 (endogenous, mouse testes) (from UniProt O09106 1-482) (enzyme)”, the binding result in experiment [3] is listed as “binds”. The same measure, in the same setting: under “HDAC2 (endogenous, mouse testes) (from UniProt P70288 1-488) (enzyme)” stands “binds”.

B1: ZCWPW1 (endogenous, mouse testes) (protein, UniProt Q6IR42 1-630)
chain: T1 sequence
As to B1, the binding result in experiment [4], in experiment [5] and in experiment [6] was “binds” each time.

B2: HDAC6, full length mouse, in pGADT7 (two-hybrid prey) (enzyme, UniProt Q9Z2V5 1-1149)
chain: T4 sequence
For B2, in experiment [1], the binding result is “binds”.

B3: HDAC6 (endogenous, mouse testes) (enzyme, UniProt Q9Z2V5 1-1149)
chain: T4 sequence
Regarding B3, the binding result in experiment [3] is listed as “binds”.
